PMC3274540 (PLoS ONE, 2012)
Results are given in words; binding and its absence hold for the method and conditions named. Binding seen in cells or lysates may run through a third protein. Some binding calls cover weakened binding; strength is not graded here. For some assays here: Tags and fused reporters may be left off the sequences shown.

B1: estrogen receptor ERβ, BRET fusion (pCMX-YFP-ERβ), Q92731 1-530 (receptor)
chain: MDIKNSPSSLNSPSSYNCSQSILPLEHGSIYIPSSYVDSHHEYPAMTFYSPAVMNYSIPSNVTNLEGGPGRQTTSPNVLWPTPGHLSPLVVHRQLSHLYAEPQKSPWCEARSLEHTLPVNRETLKRKVSGNRCASPVTGPGSKRDAHFCAVCSDYASGYHYGVWSCEGCKAFFKRSIQGHNDYICPATNQCTIDKNRRKSCQACRLRKCYEVGMVKCGSRRERCGYRLVRRQRSADEQLHCAGKAKRSGGHAPRVRELLLDALSPEQLVLTLLEAEPPHVLISRPSAPFTEASMMMSLTKLADKELVHMISWAKKIPGFVELSLFDQVRLLESCWMEVLMMGLMWRSIDHPGKLIFAPDLVLDRDEGKCVEGILEIFDMLLATTSRFRELKLQHKEYLCVKAMILLNSSMYPLVTATQDADSSRKLAHLLNAVTDALVWVIAKSGISSQQQSMRLANLLMLLSHVRHASNKGMEHLLNMKCKNVVPVYDLLLEMLNAHVLRGCKSSITGSECSPAEDSKSKEGSQNPQSQ

What was measured:
[1] = biological target: estrogen receptor ERβ, BRET fusion (pCMX-YFP-ERβ) (UniProt Q92731); test: FRET or BRET; BRET in living HEK293 cells co-transfected with ERα-RLuc + YFP-ERβ, ERα-RLuc + ERα-YFP or RLuc-ERβ + YFP-ERβ; cells in PBS incubated 1 hour with angolensin (R) (1 nM to 10 µM tested; below 1 µM the ratios were as with vehicle); coelenterazine h 5 µM
[2] = biological target: T1, estrogen receptor ERβ, BRET fusion (pCMX-YFP-ERβ), Q92731; test: FRET or BRET; BRET in living HEK293 cells co-transfected with ERα-RLuc + YFP-ERβ, ERα-RLuc + ERα-YFP or RLuc-ERβ + YFP-ERβ; cells in PBS incubated 1 hour with cosmosiin (1 nM to 10 µM tested; below 1 µM the ratios were as with vehicle); coelenterazine h 5 µM; conditions: remark: other sources report otherwise
T1 chain: B1 chain

| Molecule | binding [1] | binding [2] |
| --- | --- | --- |
| estrogen receptor ERβ, BRET fusion (pCMX-YFP-ERβ) (from UniProt Q92731 1-530) | no binding (condition: with angolensin (1 µM and 10 µM)) | – |
| B1 | – | binds |
